The target in this test is Orai1 (mouse (endogenous in small intestinal smooth muscle)) (UniProt Q8BWG9). Nature of the test: co-IP; proteins from small intestinal smooth muscle of age-matched control or diabetic (STZ) mice, extracted with 1% Nonidet P-40, 150 mmol/L NaCl, 20 mmol/L Tris-HCl pH 8.0 plus protease inhibitors; immunoprecipitated with anti-Orai1, immunoblotted with anti-BKCa channel or anti-Orai1; less BKCa pulled down in diabetic mice. (In general: In western blotting, separated proteins are transferred to a membrane and probed.)

Protein sequences, listed by entry. Tags and fused reporters are not part of them.
UniProt Q8BWG9: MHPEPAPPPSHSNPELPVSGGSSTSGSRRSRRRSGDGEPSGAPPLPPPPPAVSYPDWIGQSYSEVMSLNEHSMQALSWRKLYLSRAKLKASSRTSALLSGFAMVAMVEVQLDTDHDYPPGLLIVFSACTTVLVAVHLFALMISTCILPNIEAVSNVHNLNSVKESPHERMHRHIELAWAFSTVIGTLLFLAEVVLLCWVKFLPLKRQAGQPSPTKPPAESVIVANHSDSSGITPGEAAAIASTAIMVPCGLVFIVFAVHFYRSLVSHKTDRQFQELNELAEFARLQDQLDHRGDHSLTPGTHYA
UniProt Q08460: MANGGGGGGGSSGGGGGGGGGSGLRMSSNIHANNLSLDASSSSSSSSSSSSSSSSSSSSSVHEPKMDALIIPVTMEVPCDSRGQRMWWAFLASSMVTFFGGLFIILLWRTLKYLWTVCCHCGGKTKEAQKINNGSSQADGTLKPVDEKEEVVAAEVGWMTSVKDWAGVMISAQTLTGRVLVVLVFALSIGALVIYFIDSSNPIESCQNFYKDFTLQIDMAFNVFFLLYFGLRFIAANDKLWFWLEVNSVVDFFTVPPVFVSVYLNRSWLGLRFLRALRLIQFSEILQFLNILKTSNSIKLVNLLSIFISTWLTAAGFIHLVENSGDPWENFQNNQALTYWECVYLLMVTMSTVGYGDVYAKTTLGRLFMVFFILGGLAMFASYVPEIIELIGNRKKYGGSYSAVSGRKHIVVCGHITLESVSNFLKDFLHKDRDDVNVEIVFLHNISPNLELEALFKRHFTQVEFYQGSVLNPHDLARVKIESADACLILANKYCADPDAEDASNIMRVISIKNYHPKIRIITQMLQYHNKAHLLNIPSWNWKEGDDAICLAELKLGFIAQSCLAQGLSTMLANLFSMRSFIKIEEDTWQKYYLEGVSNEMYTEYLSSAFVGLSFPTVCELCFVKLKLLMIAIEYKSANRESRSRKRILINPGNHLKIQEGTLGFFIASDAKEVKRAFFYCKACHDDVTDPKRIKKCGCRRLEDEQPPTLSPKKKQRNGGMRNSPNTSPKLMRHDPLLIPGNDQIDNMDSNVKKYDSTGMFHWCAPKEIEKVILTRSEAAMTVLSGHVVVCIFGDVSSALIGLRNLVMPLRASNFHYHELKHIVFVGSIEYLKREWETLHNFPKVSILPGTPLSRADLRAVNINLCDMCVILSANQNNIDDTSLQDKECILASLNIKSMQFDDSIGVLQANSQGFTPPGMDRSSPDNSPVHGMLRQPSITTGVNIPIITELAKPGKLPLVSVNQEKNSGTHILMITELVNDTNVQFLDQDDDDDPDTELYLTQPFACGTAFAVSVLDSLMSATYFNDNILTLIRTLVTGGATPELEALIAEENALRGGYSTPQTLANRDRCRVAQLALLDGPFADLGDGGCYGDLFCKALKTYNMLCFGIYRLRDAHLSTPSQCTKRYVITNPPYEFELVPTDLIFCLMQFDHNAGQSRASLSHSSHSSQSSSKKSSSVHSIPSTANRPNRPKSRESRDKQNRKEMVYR

Drawing on article PMC8564290, this text covers binding for one substance.

No constants are given. Whether binding was seen depends on the method and setting. In cells and extracts the contact can be indirect. Some entries that bind do so weakly or less than the wild type.

In the case of “large conductance Ca2+-activated K+ (BKCa) channel (from UniProt Q08460 1-1209)”, the binding result was “binds”.
